From paper PMC9243006 come the findings set out here.

Results are given in words; binding and its absence hold for the method and conditions named. Some entries that bind do so weakly or less than the wild type. For some assays here: Where a sequence is shown, tags or fusion partners need not be part of it.

The target in experiment [1] is T1, purified complement factor I (UniProt Q61129).
T1 sequence: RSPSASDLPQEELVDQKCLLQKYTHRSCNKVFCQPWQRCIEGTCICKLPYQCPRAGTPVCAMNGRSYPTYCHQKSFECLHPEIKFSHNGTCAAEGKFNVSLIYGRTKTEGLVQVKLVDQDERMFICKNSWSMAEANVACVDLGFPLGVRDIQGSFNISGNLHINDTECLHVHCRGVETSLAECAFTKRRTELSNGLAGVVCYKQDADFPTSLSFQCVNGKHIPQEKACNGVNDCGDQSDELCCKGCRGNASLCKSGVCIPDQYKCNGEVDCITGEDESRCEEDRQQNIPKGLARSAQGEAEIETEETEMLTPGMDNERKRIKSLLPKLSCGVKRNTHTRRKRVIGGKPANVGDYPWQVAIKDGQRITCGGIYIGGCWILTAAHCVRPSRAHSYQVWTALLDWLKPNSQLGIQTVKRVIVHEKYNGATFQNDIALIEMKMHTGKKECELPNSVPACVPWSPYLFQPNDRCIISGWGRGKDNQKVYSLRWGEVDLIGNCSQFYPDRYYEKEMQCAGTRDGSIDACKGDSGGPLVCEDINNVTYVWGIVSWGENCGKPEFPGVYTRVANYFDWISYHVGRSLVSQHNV
Briefly: ELISA; CFI (20 µg/ml) or C3b (20 µg/ml) coated overnight at 4 °C; rmCD46 or mutants (40 µg/ml) at 37 °C for 2 h; anti-His detection; both purified. (In general: In an ELISA, binding on a coated surface is turned into a signal by an enzyme label.)

Experiment [2] concerns the target T2, Flag-tagged mouse CD46 (mCD46) expressed in HEK293T cells (mouse) (UniProt O88174).
T2 sequence: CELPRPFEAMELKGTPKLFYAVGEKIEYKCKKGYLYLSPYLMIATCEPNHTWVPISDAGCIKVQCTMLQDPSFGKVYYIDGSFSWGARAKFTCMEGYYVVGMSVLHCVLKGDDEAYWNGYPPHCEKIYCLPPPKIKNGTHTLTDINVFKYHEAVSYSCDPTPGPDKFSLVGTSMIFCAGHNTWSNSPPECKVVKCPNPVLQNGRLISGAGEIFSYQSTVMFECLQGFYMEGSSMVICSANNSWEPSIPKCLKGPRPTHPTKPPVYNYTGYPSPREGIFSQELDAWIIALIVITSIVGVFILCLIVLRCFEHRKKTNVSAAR
Briefly: fluorescence of antibody-stained cells (microplate reader); HEK293T cells expressing Flag-tagged mCD46 or mutants incubated with CFI (20 µg/ml) or C3b (20 µg/ml) at 37 °C for 1 h, fixed; antibody to C3b or CFI, FITC-labeled secondary antibody; only the binder purified.

In the case of “recombinant mCD46 (rmCD46) (from UniProt O88174 43-328) (domain or fragment)”, the binding entry in experiment [1] was “binds”.

B1: purified complement factor I (protein, UniProt Q61129 19-603)
chain: T1 sequence
Turning to B1, in experiment [2], the binding entry is recorded as “binds”.
